From patent publication US11168052B2, “Carbamate derivative compounds, processes for preparing them and their uses” (BIO-PHARM SOLUTIONS CO., LTD., priority 2016, dated 2021)

Key:
[1] = tested on: CFA-induced pain model in rats; assay: Antiallodynic activity on Complete Freund's Adjuvant (CFA)-induced inflammatory pain model; assay type: in vivo, Sprague-Dawley rats; details: intraperitoneally
Procedure: Male, Sprague-Dawley rats (210-250 g, Nara Bio, Korea) were habituated for 1 week before surgery and allowed free access to food and water throughout the experimentation. Room temperature and humidity were maintained at 24±2 and 50±10%, respectively.
CFA-induced inflammatory pain was induced by the procedure of Nagakura et al. (2003) and Gregory P. et al. (2010) with minor modifications. CFA (sigma, USA) was injected in the right plantar with a 100 ul volume under gaseous anesthesia with isoflurane. Sham controls were injected with 100 ul of saline, and preparation of the vehicle controls were identical to the group treated with compound, except for administration of vehicles without indentical to the vihecle control group.
Tactile sensitivity (Mechanical allodynia) was evaluated using von Frey monofilaments before and after treatment, and animals were include in the study only if the withdrawal threshold value was less than 4 g. One week after CFA injection, CFA-infused animals, sham-operated animal, and vehicle-operated animals were tested for tactile sensitivity with von Frey monofilaments, with 3 trials for each animal. All Animals were placed in a stainless steel mashe chamber and habituated for 30 min in the test cage. The tactile sensitivity for ipsilateral hind paw was measured using the up-and-down method (Dixon, 1980) with seven von Frey monofilaments (0.4, 1, 2, 4, 6, 8, and 15 g) to 3 trials. The tactile sensitivity test was followed by Dixon's method (Dixon, 1980). The 50% paw withdrawal threshold for each paw was calculated using the following formula: [Xth]log=[vFr]log+ky where [vFr] is the force of the last von Frey used, k=0.2249 which is the average interval (in log units) between the von Frey monofilaments, and y is a value that depends upon the pattern of withdrawal responses (Dixon, 1980).
Antiallodynic effect of compounds was evaluated at the dose of 50 mg/kg (n=4-6), intraperitoneally administrated in a volume of 5 ul/g bw in a vehicle of 30% (v/v) PEG or 20% (v/v) Tween 80. The test was performed peak time of efficacy (0.5 hr) after compound administration.
The relative values compared to the sham (% control) were calculated and shown in Table 5, which show an antiallodynic effect of Compound 1 on CFA-induced pain model in rats.

[2] = tested on: MES (electroshock) seizure in mice; assay: Anti-epilepsy activity, MES test in mouse; assay type: in vivo, ICR mice
Procedure: (§1) In the MES test (Ref., G. Villetti et al. Neuropharmacology 40(2001) 866-878), an electrical stimulus (mice: 50 mA, 60 Hz, 0.2 sec, and rats: 150 mA, 60 Hz, 0.2 sec in the test animal) supplied by an 11A Shocker (IITC Life Science Company) was delivered through corneal electrodes. All mice or rats assigned to any electroshock at peak time were treated with each test compound sample which was dissolved in 20% tween 80 prepared by saline solvent applied orally before the test. […] Three doses of the test sample were administered orally to 9-18 animals (3-6 mice per dose) for evaluating the respective doses at which 50% of the animals were protected from seizure (ED50). The ED50 value (median effective dose) was calculated by Litchfield and Wicoxon log-probit method which is a dose-response relationship. Experimental animals, male ICR mice and male SD rats, were purchased from OrientBio, Samtako, or Nara Biotech, Korea, and housed in cages (4-5 mice or 3 rats per cage) for 4-5 days. The range of mice body weight was between 19 and 25 grams and range of rats body weight was between 100 and 130 grams.

[3] = tested on: MES (electroshock) seizure in rats; assay: Anti-epilepsy activity, MES test in rats; assay type: in vivo, SD rats
Procedure: as §1

[4] = tested on: Lithium-pilocarpine induced seizure in rats; assay: Lithium-pilocarpine induced epilepsy test (LI-PILO), prevention test; assay type: in vivo, Sprague-Dawley rats; details: i.p.
Procedure: Male Sprague-Dawley rats (purchased from Orient Bio Inc. Korea) of body weight 175 grams were used for these studies and 3 rats per cage were housed for 4-5 days. On the day prior to SE, rats received 127 mg/kg lithium chloride (Sigma, St. Louis, Mo., U.S.A.) intraperitoneally (i.p.). Approximately 18-20 h following this treatment, rats were given an i.p. injection of the concentration capable of inducing 97% intermittent convulsions pilocarpine(Sigma, 30-43 mg/kg). An i.p. injection of 2 mg/kg methyl-scopolamine (Sigma) was administered 30 min prior to pilocarpine to block the effects of the muscarinic agonist on peripheral cholinergic receptors. Test drugs were dissolved in 20% tween80 (Sigma).
The drugs were administered intraperitoneally (i.p.) in a volume of 2 μl/g body weight. Pharmacological effects of all of the test materials were evaluated to compare test groups (n=6) with a control group (n=6). Control group was administered vehicle only. The efficacy was measured 0.5, 1, 2, or 4 hours after the administration of the test material. The time point that the most animals were protected was defined as peak time and the ED50 was determined at peak time. The animals were then transferred to observation cages and observed continuously for 90 min Seizure was elicited in approximately 95% of the control group. Protection was defined as complete absence of seizure grade 3-5 (Racine scale; Racine, 1972) over the 90-min observation period. The effective dose of the compound necessary to protect 50% of the animals against seizures compared to controls (i.e., ED50) was determined by a curve fitting program (Excel 2007, Microsoft).

| Compound | CFA model Peak Time [1] | MES test (po) Peak time [2] | MES test (po) Peak time [3] | Lithium pilocarpine model (pre) peak time [4] |
| --- | --- | --- | --- | --- |
| 8-chloro-2-hydroxy-1,2,3,4-tetrahydronaphthalen-1-yl carbamate (mixture of SR & RS) [Example 20] | 0.5 h | 0.5 h | – | – |
| NC(=O)O[C@@H]1CCc2cccc(Cl)c2[C@H]1O [Example 4, (1R, 2R)-8-chloro-1-hydroxy-1,2,3,4-tetrahydronaphthalen-2-yl carbamate] | – | 4 h | – | – |
| NC(=O)O[C@@H]1CCc2ccc(Cl)cc2[C@@H]1O [Example 6, (1S, 2R)-7-chloro-1-hydroxy-1,2,3,4-tetrahydronaphthalen-2-yl carbamate] | 0.5 h | 4 h | – | – |
| NC(=O)O[C@H]1CCc2ccc(Cl)cc2[C@H]1O [Example 7] | 0.5 h | 2 h | – | – |
| NC(=O)O[C@@H]1CCc2cc(Cl)ccc2[C@@H]1O [Example 8, (1S, 2R)-6-chloro-1-hydroxy-1,2,3,4-tetrahydronaphthalen-2-yl carbamate] | – | 1 h | – | – |
| NC(=O)O[C@H]1CCc2cc(Cl)ccc2[C@H]1O [Example 9, (1R, 2S)-6-chloro-1-hydroxy-1,2,3,4-tetrahydronaphthalen-2-yl carbamate] | 0.5 h | – | – | – |
| NC(=O)O[C@@H]1CCc2cccc(F)c2[C@@H]1O [Example 10, (1S, 2R)-8-fluoro-1-hydroxy-1,2,3,4-tetrahydronaphthalen-2-yl carbamate] | 0.5 h | 1 h | 4 h | – |
| NC(=O)O[C@@H]1CCc2cccc(I)c2[C@@H]1O [Example 12, (1S, 2R)-1-hydroxy-8-iodo-1,2,3,4-tetrahydronaphthalen-2-yl carbamate] | 0.5 h | 4 h | – | – |
| NC(=O)O[C@H]1CCc2cccc(I)c2[C@H]1O [Example 13, (1R, 2S)-1-hydroxy-8-iodo-1,2,3,4-tetrahydronaphthalen-2-yl carbamate] | 0.5 h | 1 h | – | – |
| NC(=O)O[C@@H]1CCc2ccccc2[C@@H]1O [Example 14, (1S, 2R)-1-hydroxy-1,2,3,4-tetrahydronaphthalen-2-yl carbamate] | – | 1 h | – | – |
| NC(=O)O[C@H]1c2ccccc2CC[C@H]1O [Example 16, (1S, 2R)-2-hydroxy-1,2,3,4-tetrahydronaphthalen-1-yl carbamate] | – | 0.5 h | – | – |
| NC(=O)O[C@H]1c2cc(Cl)ccc2CC[C@H]1O [Example 21, (1S, 2R)-7-chloro-2-hydroxy-1,2,3,4-tetrahydronaphthalen-1-yl carbamate] | 0.5 h | 3 h | – | – |
| NC(=O)O[C@@H]1c2cc(Cl)ccc2CC[C@@H]1O [Example 22, (1R, 2S)-7-chloro-2-hydroxy-1,2,3,4-tetrahydronaphthalen-1-yl carbamate] | 0.5 h | 2 h | – | – |
| NC(=O)O[C@H]1c2ccc(Cl)cc2CC[C@H]1O [Example 23, (1S, 2R)-6-chloro-2-hydroxy-1,2,3,4-tetrahydronaphthalen-1-yl carbamate] | – | 2 h | – | – |
| NC(=O)O[C@H]1c2c(F)cccc2CC[C@H]1O [Example 25, (1S, 2R)-8-fluoro-2-hydroxy-1,2,3,4-tetrahydronaphthalen-1-yl carbamate] | – | 1 h | 1 h | 1 h |
| NC(=O)O[C@H]1c2c(I)cccc2CC[C@H]1O [Example 27, (1S, 2R)-2-hydroxy-8-iodo-1,2,3,4-tetrahydronaphthalen-1-yl carbamate] | 0.5 h | – | – | – |
| NC(=O)O[C@@H]1c2c(I)cccc2CC[C@@H]1O [Example 28, (1R, 2S)-2-hydroxy-8-iodo-1,2,3,4-tetrahydronaphthalen-1-yl carbamate] | 0.5 h | – | – | – |
| NC(=O)O[C@H]1CCc2cccc(Cl)c2[C@H]1OC(N)=O [Example 30, (1R, 2S)-8-chloro-1,2,3,4-tetrahydronaphthalen-1,2-diyl dicarbamate] | 0.5 h | 4 h | – | – |
| NC(=O)O[C@@H]1CCc2cccc(I)c2[C@@H]1OC(N)=O [Example 36, (1S, 2R)-8-iodo-1,2,3,4-tetrahydronaphthalen-1,2-diyl dicarbamate] | 0.5 h | 2 h | – | – |
| NC(=O)O[C@H]1CCc2cccc(I)c2[C@H]1OC(N)=O [Example 37, (1R, 2S)-8-iodo-1,2,3,4-tetrahydronaphthalen-1,2-diyl dicarbamate] | – | 2 h | – | – |
| COCO[C@H]1c2c(Cl)cccc2CC[C@H]1OC(N)=O [Example 40, (1S, 2R)-8-chloro-1-(methoxymethoxy)-1,2,3,4-tetrahydronaphthalen-2-yl carbamate] | – | – | – | 0.5 h |
| NC(=O)O[C@@H]1Cc2cccc(F)c2[C@@H]1O [Example 55, (1S, 2R)-7-fluoro-1-hydroxy-2,3-dihydro-1H-inden-2-yl carbamate] | 0.5 h | 2 h | – | 1 h |
| NC(=O)O[C@H]1Cc2cccc(F)c2[C@H]1O [Example 56, (1R, 2S)-7-fluoro-1-hydroxy-2,3-dihydro-1H-inden-2-yl carbamate] | 0.5 h | 0.5 h | – | – |
| NC(=O)O[C@H]1c2cccc(Cl)c2C[C@H]1O [Example 62, (1S, 2R)-4-chloro-2-hydroxy-2,3-dihydro-1H-inden-1-yl carbamate] | – | 1 h | 1 h | – |
| NC(=O)O[C@@H]1Cc2c(Cl)cccc2[C@@H]1O [Example 68, (1S, 2R)-4-chloro-1-hydroxy-2,3-dihydro-1H-inden-2-yl carbamate] | – | 1 h | 1 h | – |
| NC(=O)O[C@H]1c2c(F)cccc2C[C@H]1O [Example 69, (1S, 2R)-7-fluoro-2-hydroxy-2,3-dihydro-1H-inden-1-yl carbamate] | – | 2 h | – | – |
| COCO[C@@H]1c2c(Cl)cccc2C[C@@H]1OC(N)=O [Example 72, (1R, 2S)-7-chloro-1-(methoxymethoxy)-2,3-dihydro-1H-inden-2-yl carbamate] | 0.5 h | – | – | – |
| COCO[C@H]1Cc2cccc(Cl)c2[C@H]1OC(N)=O [Example 76, (1R, 2S)-7-chloro-2-(methoxymethoxy)-2,3-dihydro-1H-inden-1-yl carbamate] | 0.5 h | – | – | – |
| NC(=O)O[C@H]1Cc2cccc(Cl)c2[C@H]1OC(N)=O [Example 78, (1R, 2S)-7-chloro-2,3-dihydro-1H-inden-1,2-diyl dicarbamate] | 0.5 h | 4 h | – | – |
